Measured values taken from patent publication US20230159646A1 (IBIO, published 2023).
No constants are given. Whether binding was seen depends on the method and setting. Some binding calls cover weakened binding; strength is not graded here.

Amino acid sequences for entries named in this document (tags omitted). A change or cut given only in a name is not applied to a line headed by its entry. Chains listed by the source or under a name are the forms on record and can include a tag or linker. Residues count along the entry.
UniProt P01589: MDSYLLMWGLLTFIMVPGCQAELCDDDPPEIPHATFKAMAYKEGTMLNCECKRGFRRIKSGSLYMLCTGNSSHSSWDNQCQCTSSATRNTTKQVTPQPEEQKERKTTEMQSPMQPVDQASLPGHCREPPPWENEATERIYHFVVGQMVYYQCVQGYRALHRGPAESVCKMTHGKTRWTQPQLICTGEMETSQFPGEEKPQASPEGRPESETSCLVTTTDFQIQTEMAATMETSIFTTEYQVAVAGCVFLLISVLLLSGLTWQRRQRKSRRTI
CD25 endogenously expressed on SUDHL-1 human lymphoma cell line and on induced human Treg (iTreg): residues 22-272 of P01589
human CD25 (Sino Biologicals, 10165-H08H): residues 22-213 of P01589
cynomolgus CD25 (Sino Biologicals, 90265-C08H) (H6WS54, form named): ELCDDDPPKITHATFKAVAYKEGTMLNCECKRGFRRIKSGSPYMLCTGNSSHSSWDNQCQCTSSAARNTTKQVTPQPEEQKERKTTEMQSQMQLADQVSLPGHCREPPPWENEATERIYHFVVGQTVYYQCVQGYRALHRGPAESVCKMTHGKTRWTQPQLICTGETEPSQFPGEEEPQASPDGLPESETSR

Assays:
[1] = molecular target: CD25 endogenously expressed on SUDHL-1 human lymphoma cell line and on induced human Treg (iTreg) (human) (UniProt P01589); assay: cell binding (summary of Example 2)
[2] = molecular target: CD25 endogenously expressed on SUDHL-1 human lymphoma cell line and on induced human Treg (iTreg) (human) (UniProt P01589); assay: flow cytometry, SUDHL-1 cells (legend of FIG. 13)
[3] = molecular target: CD25 endogenously expressed on SUDHL-1 human lymphoma cell line and on induced human Treg (iTreg) (human) (UniProt P01589); assay: flow cytometry at 10 µg/mL, SUDHL-1 and iTreg cells (legend of FIGS. 21A-21F)
[4] = molecular target: cynomolgus CD25 (Sino Biologicals, 90265-C08H) (cynomolgus) (UniProt H6WS54); assay: ELISA, immobilized cynomolgus CD25
[5] = molecular target: human CD25 (Sino Biologicals, 10165-H08H) (human) (UniProt P01589); assay: summary of the example's binding results
[6] = molecular target: cynomolgus CD25 (Sino Biologicals, 90265-C08H) (cynomolgus) (UniProt H6WS54); assay: summary of the example's binding results
[7] = molecular target: human CD25 (Sino Biologicals, 10165-H08H) (human) (UniProt P01589); assay: ELISA, immobilized human CD25
[8] = molecular target: CD25 endogenously expressed on SUDHL-1 human lymphoma cell line and on induced human Treg (iTreg) (human) (UniProt P01589); assay: summary of the example's cell binding results
[9] = molecular target: CD25 endogenously expressed on SUDHL-1 human lymphoma cell line and on induced human Treg (iTreg) (human) (UniProt P01589); assay: flow cytometry at 10 µg/mL, SUDHL-1 and iTreg cells
[10] = molecular target: CD25 endogenously expressed on SUDHL-1 human lymphoma cell line and on induced human Treg (iTreg) (human) (UniProt P01589); assay: flow cytometry, iTreg cells (legend of FIG. 18)
[11] = molecular target: CD25 endogenously expressed on SUDHL-1 human lymphoma cell line and on induced human Treg (iTreg) (human) (UniProt P01589); assay: flow cytometry, SUDHL-1 and iTreg cells

binding [1]	binding [2]	binding [3]	binding [4]	binding [5]	binding [6]	binding [7]	binding [8]	binding [9]	binding [10]	binding [11]	Binder
binds	binds	binds	binds	binds	binds	binds	binds	binds	binds	binds	IBIO-101-CHO-WT (SD-889825-CW-A; IBIO-101, wild-type CHO cells) (antibody, human IgG1, kappa, V domains shown, the entries carry the plant extensin signal peptide, which is not part of the mature antibody; Human IgG1 constant region, fucosylated (WT); also called RTX-003; hD11) VH: QVQLVQSGAEVKKPGASLKISCKGSGYTFTDYAMHWVRQAPGQGLEWIGVISTYSGDAIYAQKFQGRATMTVDTSTSTAYLELSSLRSEDTAVYYCARGVTFDYWGQGTTVTVSS VL: DIQMTQSPSSLSASVGDRVTITCRASQDISNYLEWYQQKPGKAPKLLVYNAKTLAEGVPSRFSGSGSGTDFTLTISSLQPEDFGTYYCQHHYDTPYTFGQGTKLEIKR
binds	binds	binds	binds	binds	binds	binds	binds	binds	binds	binds	IBIO-101-CHO-afuc (SD-889825-CG-A; IBIO-101, CHO cells Afucosylated) (antibody, human IgG1, kappa, V domains shown, afucosylated glycan (as printed: afucosylated), signal peptide of the entries is not part of the mature antibody; Human IgG1 constant region, afucosylated; also called RTX-003; hD11) VH: QVQLVQSGAEVKKPGASLKISCKGSGYTFTDYAMHWVRQAPGQGLEWIGVISTYSGDAIYAQKFQGRATMTVDTSTSTAYLELSSLRSEDTAVYYCARGVTFDYWGQGTTVTVSS VL: DIQMTQSPSSLSASVGDRVTITCRASQDISNYLEWYQQKPGKAPKLLVYNAKTLAEGVPSRFSGSGSGTDFTLTISSLQPEDFGTYYCQHHYDTPYTFGQGTKLEIKR
binds	binds	binds	binds	binds	binds	binds	binds	binds	binds	binds	IBIO-101-plant-WT (SD-889825-PW-A; IBIO-101, wild-type plant) (antibody, human IgG1, kappa, V domains shown, Signal peptide of the entries is not part of the mature antibody; Made in wild-type Nicotiana benthamiana; human IgG1 constant region; also called RTX-003; hD11) VH: QVQLVQSGAEVKKPGASLKISCKGSGYTFTDYAMHWVRQAPGQGLEWIGVISTYSGDAIYAQKFQGRATMTVDTSTSTAYLELSSLRSEDTAVYYCARGVTFDYWGQGTTVTVSS VL: DIQMTQSPSSLSASVGDRVTITCRASQDISNYLEWYQQKPGKAPKLLVYNAKTLAEGVPSRFSGSGSGTDFTLTISSLQPEDFGTYYCQHHYDTPYTFGQGTKLEIKR
